Reference: paper doi:10.1101/2023.11.14.567009
These are yes or no findings as the source states them, for the method shown. Binding seen in cells or lysates may run through a third protein. Some entries that bind do so weakly or less than the wild type.

Chains of the proteins cited; added tags and fusions are not shown.
UniProt Q13547: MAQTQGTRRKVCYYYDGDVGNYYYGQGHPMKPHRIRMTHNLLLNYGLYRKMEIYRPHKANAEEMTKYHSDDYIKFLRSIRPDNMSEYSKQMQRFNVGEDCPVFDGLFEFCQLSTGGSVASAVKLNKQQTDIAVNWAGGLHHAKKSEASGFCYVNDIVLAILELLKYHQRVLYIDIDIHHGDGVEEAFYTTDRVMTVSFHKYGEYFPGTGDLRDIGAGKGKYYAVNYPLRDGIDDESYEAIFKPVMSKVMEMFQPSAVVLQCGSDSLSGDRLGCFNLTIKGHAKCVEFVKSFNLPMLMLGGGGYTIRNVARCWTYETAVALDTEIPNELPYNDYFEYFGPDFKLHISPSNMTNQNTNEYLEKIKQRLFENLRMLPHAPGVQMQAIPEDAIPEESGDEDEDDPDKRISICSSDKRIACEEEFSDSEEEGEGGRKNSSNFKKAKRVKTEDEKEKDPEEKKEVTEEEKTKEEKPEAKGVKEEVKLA

Experiments:
[1] = molecular target: T1, NAT10 (human (endogenous in Jurkat)) (UniProt Q9H0A0); test: co-IP
T1 sequence: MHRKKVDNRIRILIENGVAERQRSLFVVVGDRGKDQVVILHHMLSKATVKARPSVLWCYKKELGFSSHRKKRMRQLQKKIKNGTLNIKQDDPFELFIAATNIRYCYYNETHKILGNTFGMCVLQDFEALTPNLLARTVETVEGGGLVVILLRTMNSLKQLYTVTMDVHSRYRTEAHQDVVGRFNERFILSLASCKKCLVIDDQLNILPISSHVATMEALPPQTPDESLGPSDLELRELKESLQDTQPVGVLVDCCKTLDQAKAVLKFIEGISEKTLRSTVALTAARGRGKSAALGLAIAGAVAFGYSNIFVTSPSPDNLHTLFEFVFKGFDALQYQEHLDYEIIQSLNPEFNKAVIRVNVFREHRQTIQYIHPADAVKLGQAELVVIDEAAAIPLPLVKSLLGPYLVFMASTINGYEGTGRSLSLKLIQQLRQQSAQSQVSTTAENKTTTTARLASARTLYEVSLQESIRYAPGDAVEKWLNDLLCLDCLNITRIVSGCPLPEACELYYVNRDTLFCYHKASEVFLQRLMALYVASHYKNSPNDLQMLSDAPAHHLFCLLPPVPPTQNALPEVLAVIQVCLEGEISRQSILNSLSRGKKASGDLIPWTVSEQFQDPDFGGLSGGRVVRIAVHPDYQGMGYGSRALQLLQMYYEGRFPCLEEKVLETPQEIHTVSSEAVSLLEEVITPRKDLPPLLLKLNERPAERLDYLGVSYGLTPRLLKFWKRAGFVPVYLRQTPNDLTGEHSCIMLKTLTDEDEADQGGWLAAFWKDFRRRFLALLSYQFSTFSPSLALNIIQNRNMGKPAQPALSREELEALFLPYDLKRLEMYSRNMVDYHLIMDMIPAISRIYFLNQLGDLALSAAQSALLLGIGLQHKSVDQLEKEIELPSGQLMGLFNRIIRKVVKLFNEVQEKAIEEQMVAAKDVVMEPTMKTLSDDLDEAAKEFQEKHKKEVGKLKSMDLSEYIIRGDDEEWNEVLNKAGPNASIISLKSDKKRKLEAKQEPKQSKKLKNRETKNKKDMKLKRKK

[2] = molecular target: T2, MIDEAS (human (endogenous in Jurkat)) (UniProt Q6PJG2); test: co-IP
T2 sequence: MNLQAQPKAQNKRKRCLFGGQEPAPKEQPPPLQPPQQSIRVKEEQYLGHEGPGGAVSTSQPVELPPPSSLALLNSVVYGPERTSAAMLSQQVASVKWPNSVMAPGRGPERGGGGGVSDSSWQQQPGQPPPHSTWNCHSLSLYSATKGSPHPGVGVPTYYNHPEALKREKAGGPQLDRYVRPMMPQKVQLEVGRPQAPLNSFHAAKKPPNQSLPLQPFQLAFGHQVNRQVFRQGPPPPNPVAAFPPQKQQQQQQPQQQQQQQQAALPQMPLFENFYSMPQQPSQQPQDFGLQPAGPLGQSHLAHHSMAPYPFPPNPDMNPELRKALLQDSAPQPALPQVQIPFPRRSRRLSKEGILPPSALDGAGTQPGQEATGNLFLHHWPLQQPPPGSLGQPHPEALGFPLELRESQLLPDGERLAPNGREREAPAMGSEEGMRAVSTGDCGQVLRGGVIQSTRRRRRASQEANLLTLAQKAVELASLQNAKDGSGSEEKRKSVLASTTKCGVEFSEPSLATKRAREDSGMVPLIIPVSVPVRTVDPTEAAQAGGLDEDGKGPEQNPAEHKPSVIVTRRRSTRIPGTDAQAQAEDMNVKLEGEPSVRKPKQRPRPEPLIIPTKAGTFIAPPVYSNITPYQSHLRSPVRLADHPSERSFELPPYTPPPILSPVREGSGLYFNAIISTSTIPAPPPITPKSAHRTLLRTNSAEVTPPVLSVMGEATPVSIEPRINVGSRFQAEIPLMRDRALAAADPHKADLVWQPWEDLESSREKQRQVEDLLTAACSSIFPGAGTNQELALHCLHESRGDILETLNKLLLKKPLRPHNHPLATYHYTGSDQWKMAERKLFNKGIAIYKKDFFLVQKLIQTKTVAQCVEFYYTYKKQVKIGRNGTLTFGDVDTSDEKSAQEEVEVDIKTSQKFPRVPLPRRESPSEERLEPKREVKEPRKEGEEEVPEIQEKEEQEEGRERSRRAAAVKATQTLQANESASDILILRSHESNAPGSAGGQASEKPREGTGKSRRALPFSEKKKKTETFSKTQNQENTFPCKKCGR

“HDAC1 (from UniProt Q13547 1-482) (enzyme)” was tested, and the binding [1] was “binds” and the binding [2] was “binds”.

B1: MIDEAS (protein, UniProt Q6PJG2 1-1045)
chain: T2 sequence
With B1 the binding [1] was “binds”.
